One test has as its target T1, GFP-Dok1 (human) (UniProt Q99704).
T1 sequence: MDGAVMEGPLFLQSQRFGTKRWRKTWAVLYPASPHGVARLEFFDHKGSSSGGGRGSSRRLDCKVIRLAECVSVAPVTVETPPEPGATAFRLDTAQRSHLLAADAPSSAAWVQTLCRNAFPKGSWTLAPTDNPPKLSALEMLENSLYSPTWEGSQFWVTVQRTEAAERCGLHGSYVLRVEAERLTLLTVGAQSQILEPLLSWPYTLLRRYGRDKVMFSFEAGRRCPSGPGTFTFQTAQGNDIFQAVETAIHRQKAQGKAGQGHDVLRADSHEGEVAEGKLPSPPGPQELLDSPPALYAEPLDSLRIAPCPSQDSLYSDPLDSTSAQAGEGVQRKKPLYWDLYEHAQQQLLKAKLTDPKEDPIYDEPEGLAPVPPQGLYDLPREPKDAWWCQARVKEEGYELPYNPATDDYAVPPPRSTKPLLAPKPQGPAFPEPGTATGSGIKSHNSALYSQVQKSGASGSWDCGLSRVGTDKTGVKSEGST
The experiment in a line: co-IP; HEK 293 cells co-transfected with GFP-Dok1 and BRK variants; lysate (20 mM Tris pH 7.5, 1% triton, 150 mM NaCl, 0.3 mM orthovanadate) immunoprecipitated with anti-Dok1, Protein A beads, 4°C; blotted with anti-BRK.

The next test deals with Myc-BRK-WT (human) (UniProt Q13882). The experiment in a line: co-IP; reciprocal: HEK 293 cells co-transfected with GFP-Dok1 and BRK-WT or BRK-YF; lysate immunoprecipitated with anti-BRK, Protein A beads, 4°C; blotted with anti-Dok1.
Another test addresses Myc-BRK-YF (human) (UniProt Q13882). The test is described as above.
In another test the target is GST-BRK-SH3 (human) (UniProt Q13882). The experiment in a line: pull-down; GST-BRK-SH3 or GST-BRK-SH2 immobilized on glutathione Sepharose beads, incubated with lysates of HEK 293 cells transfected with GFP-Dok1 WT or Y362F alone or cotransfected with BRK-Y447F; blotted with anti-Dok1; only the target purified.

These are yes or no findings as the source states them, for the method shown. In cells and extracts the contact can be indirect. Some entries that bind do so weakly or less than the wild type. Sequences can lack the tags named with a protein.

“BRK-Y342A (from UniProt Q13882 1-451) (enzyme)”: the binding entry with GFP-Dok1 (human) was “binds”.

With “Myc-BRK-YF (from UniProt Q13882 1-451) (enzyme)”, in the test with GFP-Dok1 (human), the binding entry is “binds”.

Take “Myc-BRK-WT (from UniProt Q13882 1-451) (enzyme)”: the binding entry with GFP-Dok1 (human) is recorded as “binds”.

B1: GFP-Dok1 (protein, UniProt Q99704 1-481)
chain: MDGAVMEGPLFLQSQRFGTKRWRKTWAVLYPASPHGVARLEFFDHKGSSSGGGRGSSRRLDCKVIRLAECVSVAPVTVETPPEPGATAFRLDTAQRSHLLAADAPSSAAWVQTLCRNAFPKGSWTLAPTDNPPKLSALEMLENSLYSPTWEGSQFWVTVQRTEAAERCGLHGSYVLRVEAERLTLLTVGAQSQILEPLLSWPYTLLRRYGRDKVMFSFEAGRRCPSGPGTFTFQTAQGNDIFQAVETAIHRQKAQGKAGQGHDVLRADSHEGEVAEGKLPSPPGPQELLDSPPALYAEPLDSLRIAPCPSQDSLYSDPLDSTSAQAGEGVQRKKPLYWDLYEHAQQQLLKAKLTDPKEDPIYDEPEGLAPVPPQGLYDLPREPKDAWWCQARVKEEGYELPYNPATDDYAVPPPRSTKPLLAPKPQGPAFPEPGTATGSGIKSHNSALYSQVQKSGASGSWDCGLSRVGTDKTGVKSEGST
Turning to B1, the binding result with Myc-BRK-WT (human), with Myc-BRK-YF (human) and with GST-BRK-SH3 (human) was “binds” each time.

B2: GFP-Dok1-Y362F (protein, UniProt Q99704 1-481)
chain: MDGAVMEGPLFLQSQRFGTKRWRKTWAVLYPASPHGVARLEFFDHKGSSSGGGRGSSRRLDCKVIRLAECVSVAPVTVETPPEPGATAFRLDTAQRSHLLAADAPSSAAWVQTLCRNAFPKGSWTLAPTDNPPKLSALEMLENSLYSPTWEGSQFWVTVQRTEAAERCGLHGSYVLRVEAERLTLLTVGAQSQILEPLLSWPYTLLRRYGRDKVMFSFEAGRRCPSGPGTFTFQTAQGNDIFQAVETAIHRQKAQGKAGQGHDVLRADSHEGEVAEGKLPSPPGPQELLDSPPALYAEPLDSLRIAPCPSQDSLYSDPLDSTSAQAGEGVQRKKPLYWDLYEHAQQQLLKAKLTDPKEDPIFDEPEGLAPVPPQGLYDLPREPKDAWWCQARVKEEGYELPYNPATDDYAVPPPRSTKPLLAPKPQGPAFPEPGTATGSGIKSHNSALYSQVQKSGASGSWDCGLSRVGTDKTGVKSEGST
Consider B2, for which, in the test with GST-BRK-SH3 (human), the binding entry is “binds”.

B3: GFP-Dok1 WT from cells cotransfected with BRK-Y447F (tyrosine-phosphorylated Dok1) (protein, UniProt Q99704 1-481)
chain: MDGAVMEGPLFLQSQRFGTKRWRKTWAVLYPASPHGVARLEFFDHKGSSSGGGRGSSRRLDCKVIRLAECVSVAPVTVETPPEPGATAFRLDTAQRSHLLAADAPSSAAWVQTLCRNAFPKGSWTLAPTDNPPKLSALEMLENSLYSPTWEGSQFWVTVQRTEAAERCGLHGSYVLRVEAERLTLLTVGAQSQILEPLLSWPYTLLRRYGRDKVMFSFEAGRRCPSGPGTFTFQTAQGNDIFQAVETAIHRQKAQGKAGQGHDVLRADSHEGEVAEGKLPSPPGPQELLDSPPALYAEPLDSLRIAPCPSQDSLYSDPLDSTSAQAGEGVQRKKPLYWDLYEHAQQQLLKAKLTDPKEDPIYDEPEGLAPVPPQGLYDLPREPKDAWWCQARVKEEGYELPYNPATDDYAVPPPRSTKPLLAPKPQGPAFPEPGTATGSGIKSHNSALYSQVQKSGASGSWDCGLSRVGTDKTGVKSEGST
modifications: tyrosine-phosphorylated by co-expressed BRK-Y447F, predominantly on Y362
In the case of B3, in the test with GST-BRK-SH3 (human), the binding result is “binds”.

The values are drawn from paper PMC3921129.
